Measurements as given in PMC8119438.
Results are given in words; binding and its absence hold for the method and conditions named. In cells and extracts the contact can be indirect. Binding can be weak; no strength is given.

Target: GST-Rab12(K71R) (mouse)
Assay: pull-down; 20 μg GST, GST-Rab12 or GST-Rab12(K71R) on glutathione agarose beads, 18 h at 4 °C with 500 μg lysate of RBL cells transfected with T7-tagged RILP, RILP mutants, RILP-L1 or RILP-L2, 0.5 mM GTPγS; blot anti-T7 (Fig. 2b,c; Supplementary figure S3); only the target purified

B1: T7-RILP (protein, UniProt Q5ND29 1-369)
chain: MEPRRAAPRLPSQASSSVGAGSAAELVYHLAGALGTELQGLARRFGPDAAAGLVPLVVRALELLEKAAVGPAPDSLQVSAQQAEVELRRLREENQRLRQELGSGPQEERALLRQLKEVTDRQRDELRAHNRDLQRRSQETEALQEQLQRLLLINSELRHKLAAVQTQLRAAQDRERERQIAQDGSSQLAKEQSLEPDAATSDDPVDTQKQPGNLPEAVQCGFSREELKQILQERNELKANVFLLKEELAYFQRELLTDHRVPGLLLEAMKVAVKKQRRKIKAKMLGTPEEAESSEDEDGSWLLLSNDKEDVPLVPESRIQNFFGLWYRGETEAPEAETSNPASSSLQKGEETPQQPHLQPVNSPPAPNS
  binding: binds
